Source: PubChem BioAssay AID1794845 (National Center for Advancing Translational Sciences (NCATS), 2023)
In all, about 6,900 compounds went through this assay and fewer than 10 were called active. The call rests on the fitted dose curve; in most records, active means well fitted curve in the direction sought with a large enough effect; inconclusive means small, poorly fitted or top-dose-only effect, or another doubt; inactive means no such curve, though single readings can be large or run the other way. Some of the results follow.

Chains of the proteins cited; added tags and fusions are not shown. Lines headed by an entry give the natural chain unless they say otherwise; changes in a name come on top.
UniProt C7C422: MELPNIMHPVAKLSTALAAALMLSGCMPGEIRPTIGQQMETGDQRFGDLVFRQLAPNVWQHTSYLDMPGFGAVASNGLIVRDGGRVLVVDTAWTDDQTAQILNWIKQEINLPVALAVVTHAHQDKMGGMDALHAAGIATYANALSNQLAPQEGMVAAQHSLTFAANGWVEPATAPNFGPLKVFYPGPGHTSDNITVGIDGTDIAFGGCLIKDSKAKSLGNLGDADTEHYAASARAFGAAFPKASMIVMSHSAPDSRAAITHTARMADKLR

molecular target: Metallo-beta-lactamase type 2 (Klebsiella pneumoniae) (UniProt C7C422); assay: qHTS to identify inhibitors of the New Delhi Metallo-beta-lactamase (NDM): primary screen against the NCATS Gemini Collection; conditions: NDM-1 enzyme, meropenem hydrolysis, absorbance 300 nm; at 38.4 µM (top of the series) unless noted; further: % of control where 0% means no effect
How it was run: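 Meropenem hydrolysis (50 uM final) by 2 nM NDM-1 read as 300 nm absorbance after 30 min, following >30 min compound–enzyme preincubation in HEPES pH 7.0 with 1 uM ZnSO4 and 0.01% Tween20.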

Activity % (negative = inhibition), inactive:
CCCn1cc(-c2ccnc(NCc3c(F)ccc(C)c3F)n2)c(C)n1 -0.376%
Cc1cc(CN2CCC3(CC2)CC(c2ccccc2)C(=O)N(C2CC2)C3)on1 (stereo not given) -1.05%
CN[C@@H](C)c1nc(C2CCOCC2)nn1CC1CCCCC1 1.27%
COCC(=O)N(C1CCOCC1)C1CCN(C(=O)c2cccnc2C)CC1 10.8%
CCNC(=O)[C@@H]1C[C@H](NC(=O)c2ccco2)CN1C(=O)Cn1nccc1C -0.914%
COC(=O)CNC(=O)N1CCCC1c1nc(CCOCC2CC2)no1 (stereo not given) 19.8%
Cc1ncsc1CN1CCC2(CC1)CC(CC(=O)NCc1ccncc1)CCO2 (stereo not given) -3.89%
Cc1ccc(OCCC2CCN(C(=O)Cn3cnc4c3c(=O)n(C)c(=O)n4C)C2)cc1 (stereo not given) 9.19%
O=C(c1cnc2ccccn12)N1CCc2c(nc(-c3ccccc3)[nH]c2=O)C1 8.8%
COCCn1c(C)cnc1CCNC(=O)NCC(C)C -3.47%
O=C(Cn1nc2n(c1=O)CCCC2)N1CCN(c2ccc(F)cc2)CC1 0.102%
O[C@H]1CC[C@@H](Cc2cc(CN3CCN(c4ccccc4)CC3)on2)O[C@@H]1CNCc1ccccc1 0.727%
Nc1nc(NCc2ccc(N3CCCC3=O)cc2)cc(C2CC(O)C2)n1 (stereo not given) 3.92%
O=C(Nc1ccc(F)cc1)c1cc(-c2ccc[nH]2)n[nH]1 53.1%
CCN(C)C(=O)CN1C[C@@H]2C[C@H]1C(=O)N2c1cc(-c2ccccc2)ccc1OC -3.47%
CN(Cc1ccccc1)C1CCOC2(CCN(C(=O)CCc3nc4ccccc4[nH]3)CC2)C1 (stereo not given) -4.05%
COC(=O)[C@H]1CN(C(=O)NC(C)C)CCN1S(C)(=O)=O 5.95% [at 57.5 µM]
Cc1nnc(-c2cc(-c3cccc(O)c3)ccn2)n1CCc1ccccc1 10.1% [at 57.5 µM]
O=C(NCc1ccccc1)c1cnc2n1CCN(Cc1c[nH]c3ccccc13)CC2 4.57% [at 57.5 µM]
O=C1NN=C(c2ccccn2)C12CCN([S+](=O)([O-])c1cccc(C(F)(F)F)c1)CC2 7.54%
Cc1noc2c(N3CC[S+](=O)([O-])CC3)cc(-c3cccnc3)nc12 83.6% [at 57.5 µM]
CCOc1ncccc1C(=O)N[C@H](c1cncc(OC)c1)C1CC(O)C1 (stereo not given in full) -0.534%
Cc1nnc2n1C(C)CN(C(=O)Cn1nnc(-c3ccc(F)cc3)n1)C2 (stereo not given) 6.94%
CCc1ccc(CN2CCCC23Cc2ccccc2CNC3=O)s1 (stereo not given) 25.2%
CC1=NOC2(CCN(Cc3ccc(N(C)C)cc3)CC2)C1 1.48% [at 57.5 µM]
Cc1noc([C@@H](C)NCc2cccc(Cl)c2)c1C(=O)O 104% [at 57.5 µM]
O=C1COc2ccc(N3CCOCC3)nc2CN1Cc1ccc(F)cc1 106% [at 57.5 µM]
O=C(c1cccc(OC(F)F)c1)N1CC[C@H](N2CCOCC2)[C@H](CCCO)C1 0.772%
COc1ccccc1C(=O)N1CCC2(CC1)NC(=O)c1ccccc1O2 0.364%
CCOc1ccc(NC(=O)Cn2nc3n(c2=O)CCN(Cc2ccccc2C)C3=O)cc1 -0.326%
Cc1ccccc1C(=O)N1CCC(N2CCCNC2=O)CC1 0.886% [at 57.5 µM]
CC(C)N1C(=O)C2(CCCCC2)C1C(=O)NCc1nc2ccccc2n1C (stereo not given) 7.27%
COc1ccc(N2Cc3c(NCCc4ccccc4F)ncnc3N(C)CC2=O)cc1 2.07%
CNC(=O)c1noc(CN2CCCC(CCc3ccccc3F)C2)n1 (stereo not given) 6.21%
CCN(CC)C(=O)[C@@H]1CCC[C@@H](NC2CCOCC2)CN(C)C(=O)C1 13% [at 57.5 µM]
CN(C)C(=O)CO[C@H]1COCCN(Cc2ccccn2)C1 7.83% [at 57.5 µM]
O=C(c1ccccc1F)N1CCC(N2CCCOC2=O)CC1 -0.708%
O=C1c2ccccc2OCC2(CCN([S+](=O)([O-])c3ccccc3)C2)N1[S+](=O)([O-])c1ccccc1 (stereo not given) 0.293%
O=C(c1ccc2ncccc2c1)N1CCC(c2nc(CCOCC3CCOCC3)no2)C1 (stereo not given) 10.6%
O=C(O)CC1(CC(=O)N[C@H]2C[C@@](O)(C(=O)N[C@H]3CCCNC3=O)C[C@@H](O)[C@@H]2O)CCCC1 -3.73%
COc1ccc(CC2(CO)CCNCC2)cc1 -1.07%
Cc1noc(C)c1CC(=O)N(C)C1CCc2nnc(C)n2CC1 (stereo not given) -9.75%
COc1cccc(CN2CCC3(CCC3OC)CC2)c1 (stereo not given) 4.72%
C[C@@H](NC(=O)C1=C[C@@H](NC(=O)Nc2ccccc2Br)[C@@H](O)[C@H](O)C1)C(N)=O 13.8%
CCN1CCC(N2CC[C@H](CO)[C@H](N(C)C)C2)CC1 -5.7%
Cc1ccc(SC2CCN(Cc3nc(CCc4ccccc4)no3)CC2)cc1 0.997%
OC1CCOC2(CCN(Cc3ccc4cc[nH]c4c3)CC2)C1 (stereo not given) -1.25%
CS(=O)(=O)N1CCC(C2CCN(C(=O)NC3CCCC3)C2)CC1 (stereo not given) 5.27%
O=C(NCCc1ccccn1)c1cccnc1OC1CCNCC1 13.9%
c1ccc(CNc2ncc(CN3CCC4(CCNCC4)C3)cn2)cc1 -3.89%
C[C@@H]1CN(C(=O)c2ccc3c(c2)N(C)C(=O)CO3)C[C@@]1(O)C1CCC1 0.651%
CCCOCCNC(=O)c1c(C)noc1-c1ccc(OC(F)(F)F)cc1 4.3%
Cc1cc(C(=O)N[C@H]2[C@H](O)[C@H](O)C[C@@H]2c2cccnc2)n(C)n1 4.06% [at 57.5 µM]
CC(=O)Nc1ccc(CC(=O)N2CCC3(CCc4nn(Cc5ccccc5)c(=O)n4CC3)CC2)cc1 0.901%
C[C@]1(O)CCN(C(=O)c2cccc(Cn3cccn3)c2)C[C@@H]1O -2.01%
CC[C@@]1(O)CCN(C(=O)c2ccccc2OCc2ccccc2)C[C@H]1O -1.54%
CN(C(=O)c1cccn1C)C1CCc2nn(C)c(=O)n2CC1 (stereo not given) 0.156%
O=S(=O)(c1ccccc1F)N1CC(c2nc(Cc3ccccc3)no2)C1 -6.66%
CN(CC(=O)N1CCC(CCOc2ccc(F)cc2)C1)S(=O)(=O)c1ccc2c(c1)oc(=O)n2C (stereo not given) 14%
c1ccc(-c2nnc([C@H]3CCN(C4CCC4)C3)o2)cc1 1.04% [at 77.1 µM]
O=C(Cc1cccs1)NC1CC(c2cc(N3CCC(O)C3)ncn2)C1 (stereo not given) 4.08%
Cc1ccc(CN2C(=O)[C@@H]3C[C@@H](O)CN3C3(CN(Cc4ccccc4Cl)C3)C2=O)o1 0.511% [at 57.5 µM]
CN1C[C@H]2CN(Cc3c[nH]c4ccccc34)CCN2C1=O 19.1% [at 77.1 µM]
NC(=O)[C@@H]1C[C@H](Oc2cccnc2)CN1C(=O)C1CCCCC1 1.04%
CN1CCCN(C(=O)CN2CC3CC(C2)[C@H]2CCCC(=O)N2C3)CC1 (stereo not given in full) -3.3%
CCc1cc(C(=O)N2CC[C@@H]3[C@@H](CCC(=O)N3CCN)C2)n(C)n1 44.1%
Cc1ccc(C(=O)N2C[C@@H](F)C[C@H]2C(=O)N2CCOCC2)cc1 4.66%
O=C(O)Cn1nc(C2CCOCC2)nc1C1CNC(=O)C1 (stereo not given) 17.7%
O=C1NCCOCCN(S(=O)(=O)c2ccc3c(c2)CCC3)[C@@H]2CCCC[C@H]12 18.1%
COc1ccc(OCC2CN(Cc3cccs3)[S+](=O)([O-])c3cccnc3O2)cc1 (stereo not given) -2.36% [at 16.1 µM]
CN1CCN(C(=O)c2cc(-c3cccnc3)nc3c2cnn3C)CC1 19.9% [at 57.5 µM]
O=C1N(Cc2ccccc2F)CCOC12CCN([S+](=O)([O-])c1cccnc1)CC2 6.14% [at 57.5 µM]
COc1ccc(NC(=O)c2ccc3c(c2)N(C(=O)c2ccc(OC)cc2)CC3)cc1 7.55%
Cc1cc(C(=O)N2c3ccccc3CC2c2nnc(C(C)C)o2)nn1C (stereo not given) 11.8%
Cc1ccc(C(=O)N2CCC(N3C(=O)CCC3C(=O)NCc3cccnc3)CC2)cc1F (stereo not given) -0.65%
CCCN(Cc1nccn1C)C(=O)c1cn(Cc2ccc(F)cc2)nn1 2.46%
COc1ccc(OC)c(NC(=O)Cc2cccn2-c2ccc(Cl)cc2)c1 0.779%
Cc1ccc(-c2cc3n(n2)CCCN(C(=O)c2cc(CN4CCOCC4)on2)C3)o1 17.7%
CS(=O)(=O)NC1CCN(Cc2cc(=O)c3cc(C(N)=O)ccc3[nH]2)CC1 5.24%
COc1ccccc1/C=C/CN1CCn2nc(CO)cc2C1 19.3%
Cc1cccc(CCN2CCC3(CC2)C(C(=O)O)CC(=O)N3C)n1 (stereo not given) -5.02%
Cc1cnc(C2CCOCC2)n1CCN 39.8%
CC1CCN(C(=O)C2(c3ccc(NC(=O)C4CC4)cc3)CCCCC2)CC1 2.62%
CC1CCCCN1C(=O)C1COC2(CCN(C(=O)c3ccco3)CC2)N1C(=O)c1ccccc1 (stereo not given) -1.45%
COc1ccccc1CCC(=O)N1CC(C(=O)N(C)C)C2(CCOCC2)C1 (stereo not given) -0.28%

Arranged by molecular weight (rising): some entries from above
Activity % (negative = inhibition), inactive:
COCCn1c(C)cnc1CCNC(=O)NCC(C)C -3.47%
CC1=NOC2(CCN(Cc3ccc(N(C)C)cc3)CC2)C1 1.48% [at 57.5 µM]
Cc1ccccc1C(=O)N1CCC(N2CCCNC2=O)CC1 0.886% [at 57.5 µM]
CN1CCCN(C(=O)CN2CC3CC(C2)[C@H]2CCCC(=O)N2C3)CC1 (stereo not given in full) -3.3%
Cc1cc(CN2CCC3(CC2)CC(c2ccccc2)C(=O)N(C2CC2)C3)on1 (stereo not given) -1.05%
O=C(c1ccc2ncccc2c1)N1CCC(c2nc(CCOCC3CCOCC3)no2)C1 (stereo not given) 10.6%
